# From patent US20240074473A1, “METHOD FOR INDUCING HYPERTROPHIC MUSCLE FIBERS FOR INDUSTRIAL MEAT PRODUCTION” (Yeda Research and Development Co. Ltd., priority 2021, published 2024)
# How the values were obtained:
# [1] = system: chicken primary myoblasts; experiment: Surface area coverage by chicken myofibers; assay type: cell-based; conditions: 48-hours post treatment, 1 uM ERKi in PM vs DM
# [2] = system: chicken primary myoblasts; experiment: Cell pellet wet weight of chicken muscle product; assay type: cell-based; conditions: 72 hours post treatment, 1 μM
structure (smiles),measurement,setting,value
O=C(Nc1ccc2[nH]nc(-c3ccncc3)c2c1)[C@@H]1CCN(CC(=O)N2CCN(c3ccc(-c4ncccn4)cc3)CC2)C1 [SCH772984],Surface area covered by myofibers,[1],45%
same,Increase in cell pellet weight (product mass) compared to DM,[2],approximately 40%
same,Increase in cell pellet weight (product mass) compared to DM,[2]; listed as ERKi,40%
